In patent publication US20190218304A1, “POTENTIATING THE EFFECT OF ATP RELEASE” (INNATE PHARMA, priority 2017, published 2019):
Numbering of substitutions follows the chain as printed. Results are given in words; binding and its absence hold for the method and conditions named. Some results given as binding are weak or reduced against the parent protein; the word gives no strength.

Tests used:
Assay in all cases: flow cytometry on transfected Hek-293T cells
CD39 mutant 10B (human) = target: T1, CD39 mutant 10B (human) (UniProt P49961)
T1 sequence: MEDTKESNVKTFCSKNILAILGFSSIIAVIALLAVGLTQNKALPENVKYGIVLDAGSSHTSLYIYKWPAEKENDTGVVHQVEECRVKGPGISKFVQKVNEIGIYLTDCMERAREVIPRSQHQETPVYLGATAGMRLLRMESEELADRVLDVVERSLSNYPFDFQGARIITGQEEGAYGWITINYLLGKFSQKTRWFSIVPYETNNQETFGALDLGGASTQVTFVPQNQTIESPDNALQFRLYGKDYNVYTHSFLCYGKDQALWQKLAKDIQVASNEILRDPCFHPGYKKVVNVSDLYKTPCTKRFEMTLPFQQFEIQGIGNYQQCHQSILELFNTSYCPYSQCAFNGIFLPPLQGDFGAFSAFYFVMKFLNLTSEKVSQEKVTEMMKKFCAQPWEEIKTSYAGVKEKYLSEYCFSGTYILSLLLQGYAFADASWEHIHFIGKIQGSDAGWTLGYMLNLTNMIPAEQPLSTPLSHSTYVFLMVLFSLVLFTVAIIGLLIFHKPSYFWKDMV

CD39 mutant 12 (human) = target: T2, CD39 mutant 12 (human) (UniProt P49961)
T2 sequence: T1 sequence with K388N, Q392K, P393S, E396A, A428H, A430T, D431A, A432D

CD39 mutant 16 (human) = target: T3, CD39 mutant 16 (human) (UniProt P49961)
T3 sequence: T1 sequence with Q323A, Q324A, Q327A, E331K, A428H, A430T, D431A, A432D

CD39 mutant 3 (human) = target: T4, CD39 mutant 3 (human) (UniProt P49961)
T4 sequence: T1 sequence with R118A, S119A, Q120K, Q122H, E123A, A428H, A430T, D431A, A432D

CD39 mutant 4 (human) = target: T5, CD39 mutant 4 (human) (UniProt P49961)
T5 sequence: T1 sequence with D150A, E153S, R154A, S157K, N158A, L278F, A428H, A430T, D431A, A432D

Measured: binding

B1: antibody I-399 (antibody, V domains shown)
VH: PVQLQQPGAEVVMPGASVKLSCKASGYTFTSFWMNWMRQRPGQGLEWIGEIDPSDFYTNSNQRFKGKATLTVDKSSSTAYMQLSSLTSEDSAVYFCARGDFGWYFDVWGTGTSVTVSS
VL: EIVLTQSPTTMTSSPGEKITFTCSASSSINSNYLHWYQQKPGFSPKLLIYRTSNLASGVPTRFSGSGSGTSYSLTIGTMEAEDVATYYCQQGSSLPRTFGGGTKLEIK
binds: all assays above
